Experimental data: the supplement of paper PMC3334620
Whole data set: some 33,000 sequences, median “E-score (-0.5 to 0.5)” near -0.015, cut for the highest 2% near 0.3. This is one part of the list.

Target: T1, Abf1 (UniProt P14164)
T1 sequence: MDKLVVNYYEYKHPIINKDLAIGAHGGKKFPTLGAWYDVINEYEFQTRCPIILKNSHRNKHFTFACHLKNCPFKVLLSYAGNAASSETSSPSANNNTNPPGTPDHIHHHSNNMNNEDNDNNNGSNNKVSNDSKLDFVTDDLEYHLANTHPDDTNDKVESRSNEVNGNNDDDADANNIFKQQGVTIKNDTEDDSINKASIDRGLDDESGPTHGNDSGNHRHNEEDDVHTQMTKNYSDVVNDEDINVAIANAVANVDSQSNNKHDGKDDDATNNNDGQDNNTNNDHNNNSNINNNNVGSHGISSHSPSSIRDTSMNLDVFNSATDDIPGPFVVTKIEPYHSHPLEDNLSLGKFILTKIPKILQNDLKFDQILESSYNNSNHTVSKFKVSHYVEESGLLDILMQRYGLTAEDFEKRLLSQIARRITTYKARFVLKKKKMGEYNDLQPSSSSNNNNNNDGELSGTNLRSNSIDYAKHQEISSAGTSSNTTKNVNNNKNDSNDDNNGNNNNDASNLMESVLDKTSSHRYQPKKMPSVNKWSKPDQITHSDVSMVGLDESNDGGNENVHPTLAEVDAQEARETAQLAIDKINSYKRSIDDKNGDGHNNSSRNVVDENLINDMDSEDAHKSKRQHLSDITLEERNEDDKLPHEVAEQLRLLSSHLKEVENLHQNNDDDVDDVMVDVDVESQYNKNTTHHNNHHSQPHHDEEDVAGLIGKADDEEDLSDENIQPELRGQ
Assay: PBM E-score (8-mer binding enrichment) (E-score (-0.5 to 0.5)); higher = stronger / more preferred TF binding
Details: protein concentration: 200 nM; construct: GST-full length
How it was run: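 Masliner-normalised scans of fluorescent anti-GST signal were the basis for scoring. That signal came from GST-tagged yeast transcription factors applied at about 100-200 nM to double-stranded universal all-10-mer Agilent arrays on fresh or once-stripped slides. Each ungapped eight-base word, pooled with its reverse complement, received an E-score from the Universal PBM Analysis Suite.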

Row | Sequence | PBM E-score
1 | GGCGCCCA | 0.126
2 | CCGTAAAG | 0.14
3 | AAATCATG | 0.215
4 | CCAACGGA | -0.12
5 | ACCGCGTA | -0.0894
6 | AACGATCT | 0.303
7 | GCTACTCA | -0.129
8 | ATACAGGA | 0.0607
9 | AGCGCACT | -0.214
10 | ACCATCGG | -0.177
11 | CTCAACTC | -0.0832
12 | CCGGTCAC | 0.05
13 | AGAAACTC | -0.24
14 | ACTGTTAG | -0.0786
15 | AGTCTACC | -0.19
16 | GCTCCGCC | -0.0741
17 | AGGGACCA | -0.127
18 | GCATAGAC | -0.0323
19 | AGAAACAT | 0.071
20 | ACGTTCGG | -0.0461
21 | GCACGAGC | 0.0977
22 | CGAAGTGA | 0.272

A few values from the results shown.
In PBM E-score, ACCATCGG is entered as -0.177
In PBM E-score, GCATAGAC is entered as -0.0323
In PBM E-score, ACTGTTAG is entered as -0.0786
In PBM E-score, ACGTTCGG is entered as -0.0461
In PBM E-score, ATACAGGA is entered as 0.0607
In PBM E-score, AAATCATG is entered as 0.215
In PBM E-score, ACCGCGTA is entered as -0.0894

Next records follow:

Row | Sequence | PBM E-score
23 | ACAAGTGA | 0.2
24 | CACTAACC | -0.0736
25 | AGGACAGC | -0.118
26 | GACACCCC | -0.211
27 | AGCGCGCC | -0.0977
28 | ATGAGCAA | 0.135
29 | AAGACGAT | 0.237
30 | GCGTACTA | -0.0501
31 | CGCTTAAG | 0.0513
32 | AAACAGAC | -0.0408
33 | GGTGAATA | -0.0317
34 | ACGGACTA | 0.113
35 | CCGTCGCC | -0.0554
36 | ATCTGATC | 0.0914
37 | TAACCGAA | -0.152
38 | AACGTTCA | -0.0413
39 | ATCAAAAT | 0.181
40 | GGTAGGAA | -0.0834
41 | AATACTAA | 0.0807
42 | CCAAGAAA | 0.0959
43 | TGCACGCA | 0.0179
44 | CATGCGTA | 0.0843

Row | Sequence | PBM E-score
45 | AGGGCATC | -0.237
46 | AAGCCGGC | -0.0655
47 | AGCGTATA | 0.0691
48 | ATATACTC | 0.113
49 | CACTATAA | 0.105
50 | CATCCAGG | -0.128
51 | GGAACCAC | -0.209
52 | ACGCAGCT | -0.0811
53 | AGCAATTG | 0.0885
54 | CCAAGGTC | -0.142
55 | GCGGTCTA | -0.0821
56 | CGCTGATC | -0.0665
57 | AAATCCGA | -0.0032
58 | CGTGGTAG | -0.0312
59 | GTGACCTA | 0.212
60 | AGCTCAGG | -0.0864
61 | AGTTTTGG | -0.0612
62 | CCCCATAC | -0.266
63 | CCTTGTAC | 0.0616
64 | CACTCGAG | -0.0424
65 | GATCGATC | -0.238
66 | GATGTGAC | 0.0541

Row | Sequence | PBM E-score
67 | CCTCCTCC | -0.243
68 | CCTGGAGA | 0.0372
69 | GACATGGA | 0.0508
70 | CGGTGGAC | 0.00208
71 | ATGTACCA | 0.0423
72 | GCCAGCCA | -0.194
73 | CAACTACA | 0.0451
74 | CCCTGGGA | -0.248
75 | CCCTGAAG | -0.12
76 | GACTTGAA | -0.0208
77 | TAATGTAA | 0.152
78 | AGCAGCCA | 0.0669
79 | AGAAACCC | -0.219
80 | AGTCACCG | 0.111
81 | CAAGAAAA | 0.0565
82 | CAATGGAG | -0.101
83 | TACCCGCA | 0.0949
84 | AGAAAGCC | -0.112
85 | CGTTCTAC | 0.083
86 | CTCTCCTC | -0.402
